Experimental findings from article PMC11701928, “Co-crystal structure of Helicobacter pylori biotin protein ligase with biotinyl-5-ATP” (Acta Crystallographica Section F: Structural Biology …, 2025) are described below.

Results are given in words; binding and its absence hold for the method and conditions named.

The assay addresses Helicobacter pylori biotin protein ligase (Helicobacter pylori (strain G27)). Description: SEC; Superdex 75 26/60; SEC buffer 20 mM HEPES pH 7.0, 300 mM NaCl, 5%(v/v) glycerol, 1 mM TCEP; single peak at ~20 kDa (monomer expected 25 kDa); both purified.

B1: Helicobacter pylori biotin protein ligase (enzyme)
chain: MRQCEKRVFDSLPSTQTYLLEKLKNNELKAPILIVAKNQSTGIGSRGNIWEGTKSALTFSLALNASDLPKDLPMQANALYLGFLFKEVLKELGSQTWLKWPNDLYLGDQKIGGVLVNVYKGMRVCGIGVNRVSKKWACLDIGASDDLIIEGFLKKIEENLFWGEVLSKYALEFHRSNSFSFHNDWGELVSLKDAELLEDGRICIKGKIYDRM
Consider B1, for which the binding entry is listed as “no binding”.
